Reference: PubChem BioAssay AID248 (DTP/NCI, 2004)
The list is a part of this screen's results and no random one: it is rich in T/C values a quarter to a half above the control, in often repeated tests (any T/C) and in doses without a T/C. Further doses and runs are listed elsewhere. T/C is the treated group as % of the vehicle group. Some doses have a count of surviving animals in place of a T/C: the source holds a T/C of zero for them, seemingly a mark for toxic or unscored doses. Some survivor counts are full or nearly so, which does not show that the dose was tolerated: the source hardly ever lists a survival T/C far under the control, and the zero likely stands for such cases as well. Survivors were counted at the toxicity check, usually on the fifth day, unless a day is given; later deaths do not show. Schedule codes are those of the source, read here as Q, the interval in days (D) or hours (H), X, the number of doses. Some schedules carry Z or #; the key to these is not given. For survival time, this PubChem deposit counts one and a half times the control or more as active, and values a quarter to a half above the control carry no call in these data; other NCI protocols may use other cut-offs. Some entries were tested several times; the values are given in rising order. Some T/C values carry the count of animals alive at the toxicity check (mostly the fifth day); without a count, all were alive then.

System: L1210 leukemia ip in BDF1 mice, survival T/C
Assay: NCI In Vivo Anticancer Drug Screen. Data for tumor model L1210 Leukemia (intraperitoneal) in B6D2F1 (BDF1) mice
Settings: T/C endpoint: mean survival time, higher T/C = longer survival
[1] = dose: 200.0 mg/kg/injection, schedule: Q04DX002 (ip), vehicle: Klucel (hydroxypropylcellulose) (HPC)
[2] = dose: 400.0 mg/kg/injection, schedule: Q04DX002 (ip), vehicle: Klucel (hydroxypropylcellulose) (HPC)
[3] = dose: 300.0 mg/kg/injection, schedule: Q01DX001 (ip), vehicle: saline
[4] = dose: 100.0 mg/kg/injection, schedule: Q04DX003 (ip), vehicle: saline
[5] = dose: 200.0 mg/kg/injection, schedule: Q01DX001 (ip), vehicle: saline
[6] = dose: 400.0 mg/kg/injection, schedule: Q01DX001 (ip), vehicle: saline
[7] = dose: 400.0 mg/kg/injection, schedule: Q01DX009 (ip), vehicle: Klucel (hydroxypropylcellulose) (HPC)
[8] = dose: 400.0 mg/kg/injection, schedule: Q01DX001 (ip), vehicle: other
[9] = dose: 200.0 mg/kg/injection, schedule: Q04DX003 (ip), vehicle: saline
[10] = dose: 150.0 mg/kg/injection, schedule: Q01DX001 (ip), vehicle: carboxymethylcellulose (CMC)
[11] = dose: 300.0 mg/kg/injection, schedule: Q01DX001 (ip), vehicle: carboxymethylcellulose (CMC)

With `CC(C)(C)c1ccc(CBr)cc1` the survivor count (dose: 100.0 mg/kg/injection, schedule: Q04DX002 (ip), vehicle: Klucel (hydroxypropylcellulose) (HPC)) was 0 of 3, the survivor count [1] was 1 of 3 and the survivor count [2] was 2 of 3.
`O=c1nc2n(CCN(CCO)CCO)c3cc(Cl)c(Cl)cc3nc-2c(=O)[nH]1` was tested, and the survivor count (dose: 75.0 mg/kg/injection, schedule: Q01DX001 (ip), vehicle: saline) was 2 of 6, the survivor count (dose: 150.0 mg/kg/injection, schedule: Q01DX001 (ip), vehicle: saline) was 0 of 6 and the survivor count [3] was 0 of 6.
In the case of `Cc1ccc(S(=O)(=O)OC2CC3c4ccccc4C2c2cccc[n+]23)cc1` (stereo unspecified), the survivor count [4] is reported as 3 of 6, the survivor count [5] is reported as 2 of 6 and the survivor count [6] is reported as 2 of 6.
For `CCC(C)[n+]1cc([O-])on1` (stereo unspecified), the survivor count (dose: 100.0 mg/kg/injection, schedule: Q01DX009 (ip), vehicle: Klucel (hydroxypropylcellulose) (HPC)) was 2 of 6, the survivor count (dose: 200.0 mg/kg/injection, schedule: Q01DX009 (ip), vehicle: Klucel (hydroxypropylcellulose) (HPC)) was 0 of 6 and the survivor count [7] was 0 of 6.
With `O=C(Nc1ccc(Cl)cc1[N+](=O)[O-])Oc1ccccc1C(=O)Nc1ccccc1` the survivor count (dose: 200.0 mg/kg/injection, schedule: Q01DX009 (ip), vehicle: saline with Tween-80) was 3 of 3.
With `NC(=S)N/N=C/c1nccn1Cc1ccccc1` the survivor count [8] was 3 of 3.
With `CSC(C#N)S(C)(=O)=O` (stereo unspecified) the survivor count (dose: 200.0 mg/kg/injection, schedule: Q01DX001 (ip), vehicle: Klucel (hydroxypropylcellulose) (HPC)) was 0 of 3 and the survivor count (dose: 400.0 mg/kg/injection, schedule: Q01DX001 (ip), vehicle: Klucel (hydroxypropylcellulose) (HPC)) was 0 of 3.
For `CCCCN(C(C)(C)C(SSSC(c1ccc(Cl)cc1)C(C)(C)N(CCCC)S(C)(=O)=O)c1ccc(Cl)cc1)S(C)(=O)=O` (stereo unspecified), the survivor count (dose: 400.0 mg/kg/injection, schedule: Q01DX009 (ip), vehicle: saline with Tween-80) was 1 of 6.
In the case of `O=CNc1ccc2c(c1)Cc1cc(Cl)ccc1-2`, the survivor count (dose: 240.0 mg/kg/injection, schedule: Q01DX015 (ip), vehicle: carboxymethylcellulose (CMC)) is reported as 2 of 6.
In the case of `CCOC(=O)c1cc(C(=O)OCC)c(=O)oc1OCC`, the survivor count [3] is reported as 1 of 6.
For `Cc1ccc(C)c(N=C=O)c1`, the survivor count (dose: 400.0 mg/kg/injection, schedule: Q04DX003 (ip), vehicle: saline with Tween-80) was 1 of 6.
In the case of `C[N+]1(C)CCCCC1`, the survivor count [4] is reported as 1 of 6 and the survivor count [9] is reported as 0 of 6.
In the case of `CCN(C(C)=O)c1ccccc1C#N`, the survivor count [3] is reported as 2 of 6.
In the case of `CN(CCNC(=O)c1ccccc1C(=O)O)c1ccccc1`, the survivor count (dose: 400.0 mg/kg/injection, schedule: Q04DX002 (ip), vehicle: saline with Tween-80) is reported as 3 of 3.
With `C[Si](C)(C)c1ccc(CCN2CC2)s1` the survivor count (dose: 100.0 mg/kg/injection, schedule: Q01DX001 (ip), vehicle: carboxymethylcellulose (CMC)) was 0 of 4, the survivor count (dose: 200.0 mg/kg/injection, schedule: Q01DX001 (ip), vehicle: carboxymethylcellulose (CMC)) was 0 of 4 and the survivor count (dose: 400.0 mg/kg/injection, schedule: Q01DX001 (ip), vehicle: carboxymethylcellulose (CMC)) was 0 of 4.
In the case of `C[N+](C)(C)c1ccc([N+](=O)[O-])cn1`, the survivor count [9] is reported as 1 of 6 and the survivor count (dose: 400.0 mg/kg/injection, schedule: Q04DX003 (ip), vehicle: saline) is reported as 0 of 6.
For `CC(=O)C(Cl)C(C)=O.CC(=O)C(Cl)C(C)=O.CO.CO.[Ni]`, the survivor count (dose: 50.0 mg/kg/injection, schedule: Q01DX009 (ip), vehicle: other) was 5 of 6 and the survivor count [6] was 0 of 6.
For `O=[N+]([O-])c1ccc(Sc2ccsc2)c([N+](=O)[O-])c1`, the survivor count [6] was 1 of 4.
In the case of `Nc1ccn(C2OC(COC(=O)C34CC5CC(CC(C5)C3)C4)C(O)C2O)c(=O)n1` (stereo unspecified), the T/C [8] is reported as 134 [7 of 8 alive] and 138 % of control [7 of 8 alive].
`O=C(O)c1ccc([N+](=O)[O-])cc1P(=O)(O)O` was tested, and the survivor count (dose: 150.0 mg/kg/injection, schedule: Q04DX003 (ip), vehicle: saline with Tween-80) was 4 of 6 and the survivor count (dose: 300.0 mg/kg/injection, schedule: Q04DX003 (ip), vehicle: saline with Tween-80) was 2 of 6.
`Cc1c(C)c(C)c(CN2CCCC2)c(C)c1C` was tested, and the survivor count (dose: 50.0 mg/kg/injection, schedule: Q01DX005 (ip), vehicle: Klucel (hydroxypropylcellulose) (HPC)) was 2 of 3, the survivor count (dose: 55.0 mg/kg/injection, schedule: Q01DX009 (ip), vehicle: Klucel (hydroxypropylcellulose) (HPC)) was 2 of 3 and the survivor count (dose: 80.0 mg/kg/injection, schedule: Q01DX009 (ip), vehicle: Klucel (hydroxypropylcellulose) (HPC)) was 1 of 3. The survivor count [1] was 3 of 3 and the survivor count [2] was 0 of 3.
For `C(=Nc1ccc2c(c1)Cc1ccccc1-2)c1ccccc1`, the survivor count [7] was 6 of 6.
`[CH3][Sn]([CH3])([Br])[CH2]CCCBr` was tested, and the survivor count (dose: 50.0 mg/kg/injection, schedule: Q01DX009 (ip), vehicle: saline) was 0 of 3, the survivor count (dose: 100.0 mg/kg/injection, schedule: Q01DX009 (ip), vehicle: saline) was 0 of 3 and the survivor count (dose: 200.0 mg/kg/injection, schedule: Q01DX009 (ip), vehicle: saline) was 0 of 3.
For `NC(N)=Nc1ccc(C(=O)Oc2ccc([N+](=O)[O-])cc2CN2CCCCC2)cc1`, the survivor count (dose: 6.25 mg/kg/injection, schedule: Q04DX003 (ip), vehicle: water) was 2 of 6, the survivor count (dose: 12.5 mg/kg/injection, schedule: Q04DX003 (ip), vehicle: water) was 0 of 6 and the survivor count (dose: 25.0 mg/kg/injection, schedule: Q01DX009 (ip), vehicle: water) was 0 of 6. For the same compound, the survivor count (dose: 25.0 mg/kg/injection, schedule: Q04DX003 (ip), vehicle: water) was 2 of 6, the survivor count (dose: 50.0 mg/kg/injection, schedule: Q04DX003 (ip), vehicle: water) was 0 of 6 and the survivor count (dose: 100.0 mg/kg/injection, schedule: Q04DX003 (ip), vehicle: water) was 2 of 6. For the same compound, the survivor count (dose: 200.0 mg/kg/injection, schedule: Q04DX003 (ip), vehicle: water) was 1 of 6 and the survivor count (dose: 400.0 mg/kg/injection, schedule: Q04DX003 (ip), vehicle: water) was 0 of 6.
In the case of `Cc1ccc(NC(=O)N(CCCl)N=O)c(NC(=O)N(CCCl)N=O)c1`, the T/C (dose: 50.0 mg/kg/injection, schedule: Q01DX001 (ip), vehicle: carboxymethylcellulose (CMC), evaluated on day 30) is reported as 137 % of control, the T/C (dose: 50.0 mg/kg/injection, schedule: Q01DX001 (ip), vehicle: carboxymethylcellulose (CMC), run until all animals had died) is reported as 135 % of control and the T/C (dose: 75.0 mg/kg/injection, schedule: Q01DX001 (ip), vehicle: carboxymethylcellulose (CMC)) is reported as 127 and 141 % of control. The survivor count (dose: 75.0 mg/kg/injection, schedule: Q01DX009 (ip), vehicle: carboxymethylcellulose (CMC)) was 6 of 6, the survivor count (dose: 112.5 mg/kg/injection, schedule: Q01DX009 (ip), vehicle: carboxymethylcellulose (CMC)) was 3 of 6 and the T/C [10] was 129 % of control. For the same compound, the survivor count [11] was 5 of 6.
`CCN(CC)CCCN(C)C(=O)C(O)(c1ccccc1)c1ccccc1` was tested, and the survivor count [5] was 0 of 3 and the survivor count [6] was 0 of 3.
`C[n+]1c(/C=C/c2ccc(O)c3ccccc23)ccc2ccccc21` was tested, and the survivor count [11] was 1 of 6.
With `Cc1cc(-c2ccc(NC(=O)Nc3cccc(C4=NCCN4)c3)c(C)c2)ccc1NC(=O)Nc1cccc(C2=NCCN2)c1` the survivor count (dose: 250.0 mg/kg/injection, schedule: Q01DX Z (ip), vehicle: methylcellulose (MC)) was 0 of 6.
`CCO/C=C1/C(=O)N(C)c2c1c(=O)n(C)c(=O)n2C` was tested, and the survivor count [2] was 3 of 3.
With `COC(=O)NCc1nc2cc3c[nH][nH]c3cc2n1` the survivor count [10] was 6 of 6 and the survivor count [11] was 0 of 6.
